# Data taken from PubChem BioAssay (NCATS).
# Sequences of proteins named here, by UniProt entry; tags and fusion partners are left off. A change or cut given only in a name is not applied to a line headed by its entry.
# UniProt Q99816: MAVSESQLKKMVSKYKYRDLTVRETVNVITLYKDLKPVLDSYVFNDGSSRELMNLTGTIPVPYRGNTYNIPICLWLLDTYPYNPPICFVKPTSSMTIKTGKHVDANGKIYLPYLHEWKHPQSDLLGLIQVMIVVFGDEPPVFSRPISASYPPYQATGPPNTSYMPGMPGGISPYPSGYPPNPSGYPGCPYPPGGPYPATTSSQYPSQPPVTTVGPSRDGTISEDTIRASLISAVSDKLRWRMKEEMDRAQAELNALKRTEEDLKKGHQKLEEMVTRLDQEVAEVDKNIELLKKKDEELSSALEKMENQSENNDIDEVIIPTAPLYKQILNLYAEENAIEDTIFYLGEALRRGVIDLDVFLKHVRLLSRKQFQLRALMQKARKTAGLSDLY
# UniProt Q9Y253: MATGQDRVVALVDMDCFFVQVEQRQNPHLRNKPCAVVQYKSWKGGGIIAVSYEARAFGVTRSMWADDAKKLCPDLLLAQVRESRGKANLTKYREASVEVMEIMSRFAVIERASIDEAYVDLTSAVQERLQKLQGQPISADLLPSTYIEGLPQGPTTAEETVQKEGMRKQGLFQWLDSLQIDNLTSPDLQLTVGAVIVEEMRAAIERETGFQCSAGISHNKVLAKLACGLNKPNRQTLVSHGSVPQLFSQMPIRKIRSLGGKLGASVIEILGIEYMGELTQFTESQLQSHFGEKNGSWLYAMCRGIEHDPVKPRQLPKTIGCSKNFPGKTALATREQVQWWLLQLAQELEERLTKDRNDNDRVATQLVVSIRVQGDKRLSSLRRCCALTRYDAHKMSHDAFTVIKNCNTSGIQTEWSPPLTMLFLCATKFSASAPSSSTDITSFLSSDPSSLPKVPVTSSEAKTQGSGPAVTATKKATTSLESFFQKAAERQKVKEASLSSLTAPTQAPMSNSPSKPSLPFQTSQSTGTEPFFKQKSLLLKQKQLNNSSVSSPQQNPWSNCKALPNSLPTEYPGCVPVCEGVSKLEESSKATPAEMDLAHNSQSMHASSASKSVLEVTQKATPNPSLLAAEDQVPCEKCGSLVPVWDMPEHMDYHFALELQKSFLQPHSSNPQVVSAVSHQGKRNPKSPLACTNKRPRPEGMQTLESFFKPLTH
# UniProt P54132: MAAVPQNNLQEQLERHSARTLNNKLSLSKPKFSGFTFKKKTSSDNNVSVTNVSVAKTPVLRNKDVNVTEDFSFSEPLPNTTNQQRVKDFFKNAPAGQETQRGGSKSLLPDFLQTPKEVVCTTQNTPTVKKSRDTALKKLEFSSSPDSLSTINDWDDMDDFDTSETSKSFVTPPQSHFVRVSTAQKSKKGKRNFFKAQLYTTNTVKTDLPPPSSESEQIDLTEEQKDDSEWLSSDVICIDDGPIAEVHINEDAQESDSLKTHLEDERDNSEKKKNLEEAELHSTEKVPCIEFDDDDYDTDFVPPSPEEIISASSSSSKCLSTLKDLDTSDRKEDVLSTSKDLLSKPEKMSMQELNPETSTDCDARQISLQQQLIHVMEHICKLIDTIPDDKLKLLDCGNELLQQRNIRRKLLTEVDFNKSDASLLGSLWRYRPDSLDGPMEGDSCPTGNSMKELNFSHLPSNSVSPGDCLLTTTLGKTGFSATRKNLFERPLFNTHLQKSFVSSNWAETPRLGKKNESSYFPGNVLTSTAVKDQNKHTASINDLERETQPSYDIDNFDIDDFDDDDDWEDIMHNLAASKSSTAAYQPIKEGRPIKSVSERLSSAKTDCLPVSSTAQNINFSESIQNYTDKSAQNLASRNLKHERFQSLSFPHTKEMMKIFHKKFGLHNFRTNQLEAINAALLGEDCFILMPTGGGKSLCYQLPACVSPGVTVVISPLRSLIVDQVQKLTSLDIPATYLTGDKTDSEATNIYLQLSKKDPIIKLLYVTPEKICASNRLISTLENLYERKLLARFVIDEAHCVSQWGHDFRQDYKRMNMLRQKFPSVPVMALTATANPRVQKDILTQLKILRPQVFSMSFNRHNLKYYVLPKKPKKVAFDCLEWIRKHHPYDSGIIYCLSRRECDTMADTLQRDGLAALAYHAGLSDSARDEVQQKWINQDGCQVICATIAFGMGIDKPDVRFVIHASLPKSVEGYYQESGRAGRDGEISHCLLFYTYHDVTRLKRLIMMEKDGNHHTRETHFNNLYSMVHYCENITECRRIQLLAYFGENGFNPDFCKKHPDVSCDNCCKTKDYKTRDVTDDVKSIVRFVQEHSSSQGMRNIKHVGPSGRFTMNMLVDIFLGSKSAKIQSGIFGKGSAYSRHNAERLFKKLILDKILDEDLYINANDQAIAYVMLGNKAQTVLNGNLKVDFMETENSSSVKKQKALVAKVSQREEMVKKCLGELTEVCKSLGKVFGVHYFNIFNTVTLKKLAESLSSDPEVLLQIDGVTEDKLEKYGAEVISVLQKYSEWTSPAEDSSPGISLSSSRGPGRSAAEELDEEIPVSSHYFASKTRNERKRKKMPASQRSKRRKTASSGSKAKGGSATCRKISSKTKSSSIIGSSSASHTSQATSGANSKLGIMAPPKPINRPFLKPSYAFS
# UniProt O95398: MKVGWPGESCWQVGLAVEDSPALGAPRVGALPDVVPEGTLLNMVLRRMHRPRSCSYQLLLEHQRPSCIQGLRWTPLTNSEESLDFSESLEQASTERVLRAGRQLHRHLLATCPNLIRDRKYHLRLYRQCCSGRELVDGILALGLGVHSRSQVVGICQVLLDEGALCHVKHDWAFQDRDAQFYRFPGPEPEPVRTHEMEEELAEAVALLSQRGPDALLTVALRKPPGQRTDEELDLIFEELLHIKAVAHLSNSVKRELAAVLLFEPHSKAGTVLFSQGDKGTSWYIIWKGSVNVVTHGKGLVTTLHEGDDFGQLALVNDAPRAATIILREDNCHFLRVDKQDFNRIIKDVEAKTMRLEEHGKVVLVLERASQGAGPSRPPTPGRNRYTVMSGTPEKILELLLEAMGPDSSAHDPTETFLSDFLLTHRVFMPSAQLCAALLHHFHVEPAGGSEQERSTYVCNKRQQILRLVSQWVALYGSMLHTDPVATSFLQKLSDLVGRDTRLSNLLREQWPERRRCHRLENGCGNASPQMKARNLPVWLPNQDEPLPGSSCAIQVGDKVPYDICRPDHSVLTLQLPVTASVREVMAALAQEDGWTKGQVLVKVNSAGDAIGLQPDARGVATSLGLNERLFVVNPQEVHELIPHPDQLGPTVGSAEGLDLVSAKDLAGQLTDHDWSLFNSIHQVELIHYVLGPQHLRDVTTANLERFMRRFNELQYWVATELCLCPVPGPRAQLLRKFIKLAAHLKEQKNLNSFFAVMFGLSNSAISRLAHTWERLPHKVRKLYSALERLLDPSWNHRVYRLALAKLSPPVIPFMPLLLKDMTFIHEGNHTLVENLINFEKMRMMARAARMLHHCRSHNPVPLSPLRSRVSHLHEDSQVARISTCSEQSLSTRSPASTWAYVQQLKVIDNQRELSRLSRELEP
# The shares of active, inactive and inconclusive entries below differ from those in the screen. Where the call is inconclusive, the potency comes from a doubtful curve fit. The source made the active and inactive calls. The call rests on the fitted dose curve; in most records, active means well fitted curve in the direction sought with a large enough effect; inconclusive means small, poorly fitted or top-dose-only effect, or another doubt; inactive means no such curve, though single readings can be large; an effect the other way counts as inactive or inconclusive.
# Target: Tumor susceptibility gene 101 protein (Homo sapiens) (UniProt Q99816)
# Experiment: qHTS Assay for Iinhibitors of HIV-1 Budding by Blocking the Interaction of PTAP/TSG101: Hit Validation (AID 651600); further: nearly all actives have a fitted effect of over 70% in size
# Conditions: PTAP peptide/TSG101 UEV interaction, biochemical assay; series mostly up to 57.5 µM
# Outline: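 Fluorescence polarization binding assay: Tsg101 binding domain (10 uM) mixed with compounds and FITC-labeled PTAP peptide (50 nM) in HEPES pH 7.5, 0.15 M NaCl, 0.01% Tween 20, EDTA, TCEP; 20 min at r.t.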
# Potency means the concentration at half of the fitted maximal effect.
row,Structure (SMILES),Potency
1,O=C(O)c1ccccc1-c1ccc(/C=C/c2cc(C(F)(F)F)[nH]c(=O)n2)o1,inactive
2,CN1C(=O)c2cccc3c(N)ccc(c23)C1=O,active: 5.8 µM
3,O=C(NC1CCCC1)c1cccc2c1C(=O)c1ccc(N3CCCCC3)cc1S2(=O)=O,"inconclusive: 46.1 µM [inhibitor, single point]"
4,Cc1cc(/C=C2\SC(=S)N(Cc3ccco3)C2=O)c(C)n1-c1cccnc1,active: 25.9 µM
5,Cc1cc2nc3c(=O)n(C4CCCCC4)c(=O)[nH]c3nc2cc1N,active: 0.651 µM
6,CCCCCCn1c(=O)[nH]c2nc3cc(N)c(C)cc3nc2c1=O,"inconclusive: 2.91 µM [inhibitor, full curve]"
7,Cc1ccc(N=Cc2c(O)n(-c3nccs3)c(=O)c3ccccc23)c(C)c1,"inconclusive: 36.6 µM [inhibitor, single point]"
8,O/C=c1\ccc2cccc3nc(C(F)(F)F)nc1c23,"inconclusive: 4.11 µM [inhibitor, full curve]"
9,CCN(CC)c1ccc(/C=C/C(=O)c2ccc(Br)cc2)cc1,inactive

# Target: DNA polymerase eta (Homo sapiens) (UniProt Q9Y253)
# Experiment: qHTS for Inhibitors of Polymerase Eta: Confirmatory Assay for Cherry-picked Compounds (AID 720502)
# Conditions: Pol eta primer extension, TAMRA/BHQ fluorescence, 10 min
# Outline: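 Plates with 10 nM enzyme and compound stood 15 min at room temperature before substrate addition (50 nM final). Displacement of the TAMRA reporter from the BHQ-2 template was tracked for 10 min.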
row,Structure (SMILES),Potency
1,CC(=O)Nc1ccc(N2C(=O)c3cccc4c(O)ccc(c34)C2=O)cc1,"inconclusive: 84.9 µM [inhibitor, single point]"
2,Cc1c(CCC(=O)O)c(=O)oc2c(C)c3occ(-c4ccc(Br)cc4)c3cc12,"inconclusive: 60.1 µM [inhibitor, partial curve]"
3,CN1/C(=C\C=C2/SC(=S)NC2=O)C(C)(C)c2ccccc21,active: 75.7 µM
4,Cc1ccc(-c2csc(NC(=O)/C=C/c3ccco3)c2C(=O)O)cc1,"inconclusive: 84.9 µM [inhibitor, single point]"

# Target: RecQ-like DNA helicase BLM (Homo sapiens) (UniProt P54132)
# Experiment: qHTS for Inhibitors of WRN Helicase: BLM Helicase Counterscreen for WRN Inhibitors (AID 720503); further: nearly all actives have a fitted effect of over 60% in size
# Conditions: Recombinant BLM helicase DNA unwinding, red fluorescence; series mostly up to 57.1 µM
# Outline: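 1 nM BLM, Tris pH 8.0/NaCl/MgCl2/DTT/Tween-20; cpd preinc 15 min RT; start w/ 100 nM DNA + 2 mM ATP final; fluorescence (ex 525/em 598) two reads 15 min apart; normalized to enzyme-free and DMSO controls.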
row,Structure (SMILES),Potency
1,O=C(O)c1ccccc1-c1ccc(/C=C/c2cc(C(F)(F)F)[nH]c(=O)n2)o1,inactive
2,Cc1ccc2c(c1)c(/C=C/c1cc[n+](C)cc1)c(C)n2C,inactive
3,Cc1ccc(-c2csc(NC(=O)/C=C/c3ccco3)c2C(=O)O)cc1,"inconclusive: 27.1 µM [inhibitor, partial curve]"

# Target: Rap guanine nucleotide exchange factor 3 (Homo sapiens) (UniProt O95398)
# Experiment: Confirmatory qHTS for antagonist of cAMP-regulated guanine nucleotide exchange factor 3 (EPAC1) (AID 1645880); further: nearly all actives have a fitted effect of over 55% in size
# Conditions: EPAC1 Rap1B-BODIPY-GDP exchange, fluorescence; series mostly up to 115 µM
# Outline: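 Released BODIPY-GDP fluoresces less than Rap1-bound BODIPY-GDP; the signal is followed at 480/540 nm at 5-min intervals over 30 min, after 5 min at room temperature. Reactions contain 100 nM EPAC1, 250 nM RAP1B-BODIPY-GDP and 50 uM GDP; results are normalized to ATA and DMSO.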
row,Structure (SMILES),Potency
1,CCCOP(=O)(OCCC)C(Nc1cccc(C(F)(F)F)c1)c1ccc(C)cc1 (stereo unspecified),"inconclusive: 42.6 µM [inhibitor, partial curve]"
2,O=C1c2ccccc2-c2onc3c(Br)cc(NC4CCCCC4)c1c23,inactive
3,Cc1cc(OC(C)C(=O)NCc2ccccn2)c2c(C)c(Cc3ccccc3)c(=O)oc2c1 (stereo unspecified),active: 47.8 µM
4,CCCc1nc2ccc(C(=O)OC)cn2c1Cc1ccccc1,inactive
5,O=C(O)c1ccccc1-c1ccc(/C=C/c2cc(C(F)(F)F)[nH]c(=O)n2)o1,inactive
6,Cc1ccc(F)c(NC(=O)/C(C#N)=C(\O)c2ccc(C(C)(C)C)cc2)c1,active: 8.91 µM
7,CCN(CC)c1ccc(/C=C(\C#N)C(=O)c2ccc(Br)cc2)cc1,inactive
8,CN1C(=O)c2cccc3c(N)ccc(c23)C1=O,inactive
9,CCOc1cnc(-c2c(-c3ccccc3Cl)noc2C)o1,"inconclusive: 84.9 µM [inhibitor, partial curve]"
10,Cc1nc(C)c(-c2csc(Nc3ccc(C(=O)O)c(O)c3)n2)s1,"inconclusive: 23.9 µM [inhibitor, partial curve]"
11,O=C(NC1CCCC1)c1cccc2c1C(=O)c1ccc(N3CCCCC3)cc1S2(=O)=O,inactive
12,Cc1cc(/C=C2\SC(=S)N(Cc3ccco3)C2=O)c(C)n1-c1cccnc1,inactive
13,Cc1cc2nc3c(=O)n(C4CCCCC4)c(=O)[nH]c3nc2cc1N,inactive
14,CCCCCCn1c(=O)[nH]c2nc3cc(N)c(C)cc3nc2c1=O,inactive
15,CC(=O)Nc1ccc(N2C(=O)c3cccc4c(O)ccc(c34)C2=O)cc1,inactive
16,Cc1c(CCC(=O)O)c(=O)oc2c(C)c3occ(-c4ccc(Br)cc4)c3cc12,"inconclusive: 42.6 µM [inhibitor, partial curve]"
17,C=CCN(C(=O)Cn1ncc2c1-c1cc(C)ccc1OC2)c1ccccc1,"inconclusive: 95.3 µM [inhibitor, partial curve, poor fit]"
18,COC1/C=C/OC2(C)Oc3c(C)c(O)c4c(O)c(c(/C=N/N5CCN(C)CC5)c(O)c4c3C2=O)NC(=O)/C(C)=C/C=C/C(C)C(O)C(C)C(O)C(C)C(OC(C)=O)C1C (stereo unspecified),"inconclusive: 44.4 µM [inhibitor, partial curve]"
19,O=S(=O)(O)c1cccc(N=Nc2c(O)ccc3ccccc23)c1,active: 37.9 µM
20,CCOc1ccc(NC(=NCc2ccc3c(c2)OCO3)SC2CC(=O)N(c3ccc(C(=O)O)cc3)C2=O)cc1 (stereo unspecified),"inconclusive: 75.7 µM [inhibitor, partial curve]"

row,Structure (SMILES),Potency
1,CCOc1ccc(S(=O)(=O)Nc2cc(NS(=O)(=O)c3ccc(OCC)cc3)cc(C(=O)O)c2)cc1,"inconclusive: 75.7 µM [inhibitor, partial curve]"
2,Cc1ccc(C2=NOC(=O)/C2=C\c2ccc(C)o2)cc1,active: 75.7 µM
3,CC1(C(=O)NS(=O)(=O)c2ccc(Cl)s2)CCN1C(=O)C1(c2ccc(Cl)cc2)CCC1 (stereo unspecified),active: 9.53 µM
4,Cc1ccc(N=Cc2c(O)n(-c3nccs3)c(=O)c3ccccc23)c(C)c1,inactive
5,CN1/C(=C\C=C2/SC(=S)NC2=O)C(C)(C)c2ccccc21,inactive
6,COc1ccc2oc(C)c(C(=O)c3ccccc3)c2c1,inactive
7,c1csc(CNc2ccnc(-c3ccc4c(c3)OCO4)n2)c1,inactive
8,COc1cc(-c2noc(C)c2-c2ccc3[nH]ccc3c2)cc(OC)c1OC,inactive
9,Cc1cc(C)c2nc(C(F)(F)F)nc(N3CC(C)OC(C)C3)c2c1 (stereo unspecified),"inconclusive: 21.3 µM [inhibitor, full curve, poor fit]"
10,CNc1ccc(/C=C(\CCC(=O)O)c2nc3ccccc3s2)cc1[N+](=O)[O-],"inconclusive: 28.2 µM [inhibitor, partial curve]"
11,O/C=c1\ccc2cccc3nc(C(F)(F)F)nc1c23,inactive
12,COc1cccc(/C=N/NC(=O)c2[nH]nc3c2CCc2ccccc2-3)c1O,active: 33.8 µM
13,CCOc1cc(/C=N/O)cc(Br)c1OCc1ccc(Cl)cc1,"inconclusive: 75.7 µM [inhibitor, partial curve]"
14,CCOC(=O)N1CCN(C(=O)c2cc(S(=O)(=O)N3CCc4ccccc43)ccc2OC)CC1,inactive
15,COc1ccccc1CNc1nc(-c2cccc(C#N)c2)nc2ccccc12,inactive
16,CN(CC(=O)Nc1ccc(F)cc1)C(=O)COc1ccc(C(=O)c2ccccc2)cc1,"inconclusive: 26.9 µM [inhibitor, full curve, poor fit]"
17,O=C(N/N=C/c1ccc(OC(=O)c2ccccc2Cl)cc1)c1cc(O)cc(O)c1,"inconclusive: 19 µM [inhibitor, full curve]"
18,Cc1ccc2c(c1)c(/C=C/c1cc[n+](C)cc1)c(C)n2C,inactive
19,CCN(CC)c1ccc(/C=C/C(=O)c2ccc(Br)cc2)cc1,inactive
20,Cc1ccc(-c2csc(NC(=O)/C=C/c3ccco3)c2C(=O)O)cc1,active: 25.1 µM
